These results are taken from article PMC12395676.

By UniProt entry, the sequences of proteins in these tests, tags left out.
UniProt Q15796: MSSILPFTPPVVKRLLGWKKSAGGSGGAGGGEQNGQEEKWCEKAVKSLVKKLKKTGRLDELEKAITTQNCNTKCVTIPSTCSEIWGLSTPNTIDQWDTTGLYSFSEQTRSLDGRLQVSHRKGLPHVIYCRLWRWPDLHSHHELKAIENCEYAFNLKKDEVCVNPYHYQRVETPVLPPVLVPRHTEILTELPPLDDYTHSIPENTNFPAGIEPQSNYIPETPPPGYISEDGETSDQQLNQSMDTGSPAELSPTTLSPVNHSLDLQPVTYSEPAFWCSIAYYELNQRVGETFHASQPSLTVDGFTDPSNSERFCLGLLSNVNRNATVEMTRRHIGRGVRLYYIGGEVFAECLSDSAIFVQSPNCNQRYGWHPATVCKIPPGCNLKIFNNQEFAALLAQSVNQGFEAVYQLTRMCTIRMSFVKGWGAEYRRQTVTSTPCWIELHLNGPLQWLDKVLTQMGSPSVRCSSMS
UniProt P31271: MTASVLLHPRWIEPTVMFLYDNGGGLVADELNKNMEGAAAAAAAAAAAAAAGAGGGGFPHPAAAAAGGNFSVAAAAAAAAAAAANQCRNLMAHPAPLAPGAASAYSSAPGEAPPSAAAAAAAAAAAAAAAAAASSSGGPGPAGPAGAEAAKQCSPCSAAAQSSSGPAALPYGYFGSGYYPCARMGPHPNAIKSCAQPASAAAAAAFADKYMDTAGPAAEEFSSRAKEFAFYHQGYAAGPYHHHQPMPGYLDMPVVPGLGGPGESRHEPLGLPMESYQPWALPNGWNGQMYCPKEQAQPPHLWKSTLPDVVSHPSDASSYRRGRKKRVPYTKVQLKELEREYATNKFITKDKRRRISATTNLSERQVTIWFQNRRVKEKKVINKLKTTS

Results are given in words; binding and its absence hold for the method and conditions named. In cells and extracts the contact can be indirect. Some results given as binding are weak or reduced against the parent protein; the word gives no strength.

This experiment concerns the target smad2 (UniProt Q15796). The experiment is described as follows: co-IP; CO-IP kit (Abison Biotechnology); proteins mixed with MG-132 (10 µM), incubated with primary antibodies, then protein A/G plus-agarose beads; complexes examined by western blot; sample and precipitating antibody not stated.

As to “Homeobox A13 (HOXA13) (from UniProt P31271 1-388)”, the binding entry is reported as “binds”.
